# The supplement of paper PMC12823440, “Inhibitors supercharge kinase turnover through native proteolytic circuits” (Nature, 2025)
# Amino acid sequences for entries named in this document (tags omitted). A change or cut given only in a name is not applied to a line headed by its entry.
# UniProt Q05397, whole entry, looked up: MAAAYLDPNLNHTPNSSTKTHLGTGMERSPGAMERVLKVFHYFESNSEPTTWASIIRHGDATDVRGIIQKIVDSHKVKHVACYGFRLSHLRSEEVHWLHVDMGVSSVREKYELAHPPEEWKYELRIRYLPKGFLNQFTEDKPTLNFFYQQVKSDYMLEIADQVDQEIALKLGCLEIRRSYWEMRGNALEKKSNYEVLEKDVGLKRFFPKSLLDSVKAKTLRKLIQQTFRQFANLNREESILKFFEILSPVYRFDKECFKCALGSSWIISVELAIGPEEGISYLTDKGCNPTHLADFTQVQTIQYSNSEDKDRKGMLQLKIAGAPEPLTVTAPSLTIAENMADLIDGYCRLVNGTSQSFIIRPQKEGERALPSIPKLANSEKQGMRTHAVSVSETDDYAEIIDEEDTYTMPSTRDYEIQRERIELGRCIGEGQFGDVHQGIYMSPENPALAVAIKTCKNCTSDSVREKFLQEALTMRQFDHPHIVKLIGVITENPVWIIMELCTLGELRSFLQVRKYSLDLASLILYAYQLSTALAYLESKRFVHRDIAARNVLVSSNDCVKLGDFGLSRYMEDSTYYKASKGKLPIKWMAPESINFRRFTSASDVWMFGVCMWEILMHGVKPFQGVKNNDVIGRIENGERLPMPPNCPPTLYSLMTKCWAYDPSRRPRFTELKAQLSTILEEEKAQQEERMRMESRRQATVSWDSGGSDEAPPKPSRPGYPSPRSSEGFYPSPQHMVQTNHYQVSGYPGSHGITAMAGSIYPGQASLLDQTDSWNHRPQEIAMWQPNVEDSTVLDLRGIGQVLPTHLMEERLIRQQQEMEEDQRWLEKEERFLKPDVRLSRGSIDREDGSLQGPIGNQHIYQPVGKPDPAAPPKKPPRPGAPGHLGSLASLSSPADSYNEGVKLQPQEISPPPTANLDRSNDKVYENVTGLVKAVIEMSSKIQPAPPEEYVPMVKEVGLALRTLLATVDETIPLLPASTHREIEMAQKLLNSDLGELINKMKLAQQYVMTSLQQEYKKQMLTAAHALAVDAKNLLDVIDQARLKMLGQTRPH
# UniProt Q14289, whole entry, looked up: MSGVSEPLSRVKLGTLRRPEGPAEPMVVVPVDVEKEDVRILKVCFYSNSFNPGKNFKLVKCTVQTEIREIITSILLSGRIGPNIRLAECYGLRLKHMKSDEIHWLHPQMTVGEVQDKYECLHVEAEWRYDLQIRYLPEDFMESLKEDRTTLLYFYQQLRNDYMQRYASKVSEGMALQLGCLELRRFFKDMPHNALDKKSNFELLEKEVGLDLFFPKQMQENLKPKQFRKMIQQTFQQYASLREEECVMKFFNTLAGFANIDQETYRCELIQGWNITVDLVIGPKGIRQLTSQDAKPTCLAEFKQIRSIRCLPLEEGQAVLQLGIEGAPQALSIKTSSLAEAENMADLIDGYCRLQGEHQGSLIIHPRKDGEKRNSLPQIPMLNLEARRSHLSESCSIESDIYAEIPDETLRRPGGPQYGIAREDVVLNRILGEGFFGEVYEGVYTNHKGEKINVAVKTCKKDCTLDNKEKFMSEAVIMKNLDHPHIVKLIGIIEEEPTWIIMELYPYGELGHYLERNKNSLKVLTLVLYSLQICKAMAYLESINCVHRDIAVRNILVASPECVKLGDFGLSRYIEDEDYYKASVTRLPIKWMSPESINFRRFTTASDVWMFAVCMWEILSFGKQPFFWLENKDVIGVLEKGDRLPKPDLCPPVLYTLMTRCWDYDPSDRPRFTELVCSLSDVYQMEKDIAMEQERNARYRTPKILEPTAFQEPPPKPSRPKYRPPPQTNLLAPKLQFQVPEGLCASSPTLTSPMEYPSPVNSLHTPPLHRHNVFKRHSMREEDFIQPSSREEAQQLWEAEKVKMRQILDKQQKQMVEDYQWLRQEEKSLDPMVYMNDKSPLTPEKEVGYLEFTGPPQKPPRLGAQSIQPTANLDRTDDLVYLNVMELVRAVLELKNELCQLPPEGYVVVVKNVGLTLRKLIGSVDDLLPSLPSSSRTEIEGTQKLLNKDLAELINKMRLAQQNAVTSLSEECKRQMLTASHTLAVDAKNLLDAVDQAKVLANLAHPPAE
# UniProt P07949, whole entry, looked up: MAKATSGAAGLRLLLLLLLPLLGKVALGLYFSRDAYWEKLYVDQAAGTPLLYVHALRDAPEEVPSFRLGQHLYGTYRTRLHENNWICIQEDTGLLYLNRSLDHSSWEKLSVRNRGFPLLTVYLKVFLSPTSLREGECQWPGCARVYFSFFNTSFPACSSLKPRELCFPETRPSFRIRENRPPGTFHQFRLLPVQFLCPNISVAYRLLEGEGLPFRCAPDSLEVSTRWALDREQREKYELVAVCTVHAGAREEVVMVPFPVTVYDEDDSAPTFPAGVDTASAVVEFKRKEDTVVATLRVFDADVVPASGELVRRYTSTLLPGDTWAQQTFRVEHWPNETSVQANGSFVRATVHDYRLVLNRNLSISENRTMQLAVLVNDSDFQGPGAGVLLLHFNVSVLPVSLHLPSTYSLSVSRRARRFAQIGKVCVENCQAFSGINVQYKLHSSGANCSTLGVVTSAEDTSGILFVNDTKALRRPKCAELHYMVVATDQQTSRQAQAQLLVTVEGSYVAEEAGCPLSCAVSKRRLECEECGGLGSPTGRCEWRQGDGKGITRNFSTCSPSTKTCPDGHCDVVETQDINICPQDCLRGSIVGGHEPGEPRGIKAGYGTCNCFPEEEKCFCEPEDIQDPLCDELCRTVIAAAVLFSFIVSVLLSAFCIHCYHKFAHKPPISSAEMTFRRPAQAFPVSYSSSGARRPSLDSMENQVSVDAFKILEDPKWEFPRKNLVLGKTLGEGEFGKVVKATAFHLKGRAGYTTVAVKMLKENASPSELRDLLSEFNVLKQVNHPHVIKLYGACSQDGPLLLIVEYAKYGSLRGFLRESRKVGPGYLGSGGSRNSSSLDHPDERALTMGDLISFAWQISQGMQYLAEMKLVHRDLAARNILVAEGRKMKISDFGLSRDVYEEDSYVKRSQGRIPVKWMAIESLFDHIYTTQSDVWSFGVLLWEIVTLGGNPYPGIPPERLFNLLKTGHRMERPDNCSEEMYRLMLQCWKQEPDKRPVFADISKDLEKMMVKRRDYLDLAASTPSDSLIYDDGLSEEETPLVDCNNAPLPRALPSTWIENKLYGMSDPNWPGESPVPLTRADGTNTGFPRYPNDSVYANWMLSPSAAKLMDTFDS
# UniProt P07949, whole entry M918T, looked up: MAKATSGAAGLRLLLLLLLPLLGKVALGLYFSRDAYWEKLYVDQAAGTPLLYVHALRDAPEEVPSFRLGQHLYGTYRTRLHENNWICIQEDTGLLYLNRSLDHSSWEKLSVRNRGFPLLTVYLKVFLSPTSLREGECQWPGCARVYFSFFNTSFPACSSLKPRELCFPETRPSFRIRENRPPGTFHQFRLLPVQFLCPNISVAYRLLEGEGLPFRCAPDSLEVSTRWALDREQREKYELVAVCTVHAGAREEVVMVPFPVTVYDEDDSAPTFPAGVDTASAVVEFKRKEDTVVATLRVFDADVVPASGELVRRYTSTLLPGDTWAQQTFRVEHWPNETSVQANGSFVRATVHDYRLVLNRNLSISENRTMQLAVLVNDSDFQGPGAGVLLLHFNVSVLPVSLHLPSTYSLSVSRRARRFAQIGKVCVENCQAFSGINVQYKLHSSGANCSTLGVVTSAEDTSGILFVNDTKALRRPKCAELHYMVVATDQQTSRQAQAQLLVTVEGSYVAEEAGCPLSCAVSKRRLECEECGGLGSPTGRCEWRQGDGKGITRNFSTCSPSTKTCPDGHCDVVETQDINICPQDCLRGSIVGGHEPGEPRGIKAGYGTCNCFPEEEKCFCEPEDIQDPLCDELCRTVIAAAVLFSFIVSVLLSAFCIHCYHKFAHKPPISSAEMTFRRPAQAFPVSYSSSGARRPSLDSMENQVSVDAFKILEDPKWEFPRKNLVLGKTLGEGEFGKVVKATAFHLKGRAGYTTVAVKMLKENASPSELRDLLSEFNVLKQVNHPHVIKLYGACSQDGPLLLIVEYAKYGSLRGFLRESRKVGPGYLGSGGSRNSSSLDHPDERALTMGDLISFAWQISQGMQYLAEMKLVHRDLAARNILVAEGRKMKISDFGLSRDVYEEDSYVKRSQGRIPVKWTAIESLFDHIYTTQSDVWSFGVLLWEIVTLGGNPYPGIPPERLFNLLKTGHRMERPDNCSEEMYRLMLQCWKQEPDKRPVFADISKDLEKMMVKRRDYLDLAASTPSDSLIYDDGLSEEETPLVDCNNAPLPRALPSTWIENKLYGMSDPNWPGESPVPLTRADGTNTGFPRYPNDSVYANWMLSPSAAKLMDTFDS
# UniProt Q9BRS2: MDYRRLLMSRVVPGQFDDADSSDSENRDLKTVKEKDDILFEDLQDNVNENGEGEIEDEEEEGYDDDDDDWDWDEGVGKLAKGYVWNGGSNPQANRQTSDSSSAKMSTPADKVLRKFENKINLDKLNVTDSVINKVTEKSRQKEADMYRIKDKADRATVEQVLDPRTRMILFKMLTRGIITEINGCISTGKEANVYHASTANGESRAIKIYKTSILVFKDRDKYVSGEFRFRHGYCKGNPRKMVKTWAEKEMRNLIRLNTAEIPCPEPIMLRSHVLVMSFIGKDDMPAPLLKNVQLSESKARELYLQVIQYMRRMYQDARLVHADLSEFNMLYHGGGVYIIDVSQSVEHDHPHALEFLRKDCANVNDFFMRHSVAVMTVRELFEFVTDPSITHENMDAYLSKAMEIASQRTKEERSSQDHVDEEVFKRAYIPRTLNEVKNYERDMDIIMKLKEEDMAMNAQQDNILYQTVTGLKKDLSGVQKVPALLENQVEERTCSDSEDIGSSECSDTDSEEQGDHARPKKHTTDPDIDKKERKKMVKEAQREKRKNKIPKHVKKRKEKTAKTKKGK
# UniProt Q13546: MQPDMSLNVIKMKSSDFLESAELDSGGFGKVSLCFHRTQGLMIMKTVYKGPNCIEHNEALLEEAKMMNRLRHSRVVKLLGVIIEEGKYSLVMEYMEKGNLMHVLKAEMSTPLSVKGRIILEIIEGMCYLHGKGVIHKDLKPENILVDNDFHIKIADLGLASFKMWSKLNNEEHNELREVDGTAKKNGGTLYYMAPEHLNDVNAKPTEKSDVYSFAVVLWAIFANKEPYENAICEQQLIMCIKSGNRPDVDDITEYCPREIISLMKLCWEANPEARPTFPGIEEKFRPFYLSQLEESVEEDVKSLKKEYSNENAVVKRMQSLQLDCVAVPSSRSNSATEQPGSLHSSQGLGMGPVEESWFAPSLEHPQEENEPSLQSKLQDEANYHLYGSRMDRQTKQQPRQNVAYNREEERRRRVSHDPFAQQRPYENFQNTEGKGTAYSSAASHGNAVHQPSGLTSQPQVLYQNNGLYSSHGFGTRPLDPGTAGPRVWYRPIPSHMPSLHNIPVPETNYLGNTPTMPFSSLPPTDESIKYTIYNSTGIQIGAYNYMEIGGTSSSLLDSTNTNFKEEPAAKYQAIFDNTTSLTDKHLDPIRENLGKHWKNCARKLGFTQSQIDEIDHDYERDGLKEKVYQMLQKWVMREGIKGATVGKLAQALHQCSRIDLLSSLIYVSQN
# Where a name gives a salt, the structure may show the parent alone. The list shows a part of the results. Hit calls seldom repeat between salt and free forms of one compound.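 Kinases, fused to nanoluciferase, were expressed in K562 cells; luminescence was measured every 4 h from 2 to 18 h as percent of control (DMSO = 100%, positive control = 0%). A time point is decreased if signal falls significantly (2 sigma). Hits were called by the authors by a rule that is not shown; the count of time points alone does not decide it.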
# Tests used:
# Assay in all cases: number of time points (of 5) at which kinase-Nluc abundance scored as decreased, DMSO-normalised (count); higher = more persistent destabilization
# Conditions in all cases: K562; 2-18 h
# PRKCA = PRKCA (UniProt P17252)
# PTK2 = PTK2 (UniProt Q05397)
# PTK2B = PTK2B (UniProt Q14289)
# RAF1 = RAF1 (UniProt P04049)
# [1] = target: RAF1_S257L (clone: RAF1_mut) (UniProt P04049)
# RET = RET (UniProt P07949)
# [2] = target: RET_M918T (clone: RET_mut) (UniProt P07949)
# RIOK1 = RIOK1 (UniProt Q9BRS2)
# RIPK1 = RIPK1 (UniProt Q13546)
# RIPK2 = RIPK2 (UniProt O43353)
SMILES,number of time points (PRKCA),number of time points (PTK2),number of time points (PTK2B),number of time points (RAF1),number of time points [1],number of time points (RET),number of time points [2],number of time points (RIOK1),number of time points (RIPK1),number of time points (RIPK2)
COc1ccc(Nc2ncc(C(F)(F)F)c(NC3CC3)n2)cc1OC (10 µM),0,0,0,0,3,0,4,0,0,3
Cc1cccc(-c2[nH]ncc2-c2ccnc3ccccc23)n1 (10 µM),0,0,0,0,0,0,0,0,0,0
CCN(CC)CCCC(C)Nc1nc(C)cc(Nc2ccc3nc(C)cc(N)c3c2)n1 (stereo not given) (10 µM),0,0,0,0,0,0,0,0,0,0
CCCn1/c(=N/C(=O)c2cccc(C(N)=O)c2)[nH]c2ccccc21 [Takinib] (10 µM),0,0,0,0,0,0,0,0,0,0
Cc1cc(C(=O)NC(C)(C)C)cc(C#Cc2ccc3c4c(oc3c2)C(C)(C)c2cc(NS(C)(=O)=O)ccc2C4=O)n1 (10 µM),0,0,0,0,0,0,0,0,0,0
C=CC(=O)N1CC[C@@H](Oc2nc(Nc3ccc(N4CCC(N5CCN(C)CC5)CC4)cc3)c(C(N)=O)nc2CC)C1 [Naquotinib (mesylate)] (2.5 µM),0,0,0,0,0,0,0,0,0,0
NC(=O)c1ccc(N(C(N)=O)c2c(F)cccc2F)nc1-c1ccc(F)cc1F (10 µM),0,0,0,0,0,0,0,0,0,0
COc1cc2nccc(Oc3ccc(NC(=O)c4cn(C(C)C)c(=O)n(-c5ccc(F)cc5)c4=O)cc3F)c2cc1OC (0.5 µM),0,3,0,0,0,0,0,0,0,0
Cc1c(C(=O)Nc2ccc(Oc3ccnc4[nH]cc(-c5ccccc5)c34)c(F)c2)c(=O)n(-c2ccc(F)cc2)n1C (10 µM),0,0,0,0,0,0,0,0,0,1
Cc1nc[nH]c1CN1CCN(C(=O)N[C@@H](CC(C)C)C(=O)O)[C@@H](Cc2ccccc2)C1=O (10 µM),0,0,0,0,0,0,0,0,0,0
CC(C)n1c([C@H](C)Nc2ncnc(N)c2C#N)cc2cccc(-c3ccc(=O)n(C)c3)c2c1=O (10 µM),0,0,0,0,3,0,0,0,0,0
COC(=O)/C=C/c1ccccc1 [Methyl cinnamate] (10 µM),0,0,0,0,0,0,0,0,0,0
CC(C)n1ncnc1-c1cn2c(n1)-c1ccc(O[C@@H](C)C(N)=O)cc1OCC2 (10 µM),0,0,0,0,0,0,0,0,0,0
O=C1CC[C@H](NC(=O)Cc2ccccc2)C(=O)N1 [Antineoplaston A10] (10 µM),0,0,0,0,0,0,0,0,0,0
C#Cc1cccc(Nc2ncnc3cc(OC)c(NC(=O)N4C[C@H]5CCN(C)[C@H]5C4)cc23)c1 [Theliatinib] (10 µM),0,0,0,0,0,0,0,0,0,0
Cc1ccc(C(=O)NC2CC2)cc1-n1ncc(C(=O)c2cccc(C#N)c2)c1N [Acumapimod] (10 µM),0,0,0,0,3,0,0,0,0,0
CN1CCC(CNc2ccc3ncc(-c4cccc(OC(F)(F)F)c4)n3n2)CC1 (2.5 µM),0,0,0,0,0,0,0,0,0,0
N#Cc1ccc(-c2cnc3ccc(-c4ccc(C(=O)N5CCOCC5)cc4)cn23)cc1 (10 µM),0,0,0,0,0,0,0,0,0,0
N#C/C(=C\c1ccc(O)c(O)c1)C(=O)O [Tyrphostin AG30] (10 µM),0,0,0,0,0,0,0,0,0,0

SMILES,number of time points (PRKCA),number of time points (PTK2),number of time points (PTK2B),number of time points (RAF1),number of time points [1],number of time points (RET),number of time points [2],number of time points (RIOK1),number of time points (RIPK1),number of time points (RIPK2)
Cc1cc(-n2c(=O)ccc3c[nH]c4nccc-4c32)ccc1F (10 µM),0,0,0,0,1,0,0,0,0,0
Cc1cccc(/C=N/Nc2cc(N3CCOCC3)n3nc(-c4ccncc4)cc3n2)c1 (10 µM),1,0,0,0,0,0,0,0,0,0
COc1cc(-c2cc(OP(=O)(O)O)cc(-c3cc(OC)c(OC)c(OC)c3)c2)cc(OC)c1OC [Stafia-1] (10 µM),0,0,0,0,0,0,0,0,0,0
Brc1ccc(CSc2nc3ccccc3o2)cc1 [BMP signaling agonist sb4] (10 µM),0,0,0,0,0,0,0,0,0,0
Cc1cc(CSc2ccccc2C(=O)NCCNc2ccc(C(F)(F)F)cc2[N+](=O)[O-])on1 (10 µM),0,0,0,0,0,0,0,0,0,0
NC[C@@](O)(c1ccc(Cl)cc1)c1ccc(-c2cn[nH]c2)cc1 (10 µM),0,0,0,0,0,0,0,0,0,0
O=Nc1c(-c2c(O)[nH]c3cc(Br)ccc23)[nH]c2ccccc12 [GSK 3 Inhibitor IX] (2.5 µM),0,1,0,0,0,4,1,0,0,0
CC(C)(C)Cc1[nH]nc2c1[C@@](C)(c1ccccc1)C1=C(CC(C)(C)CC1=O)N2 (10 µM),0,0,0,0,0,0,0,0,0,0
N#Cc1ccc2ncnc(NCCc3ccccc3)c2c1 [Senexin A] (10 µM),0,0,0,0,0,0,0,0,0,0
CC(C)=CCC/C(C)=C/CC/C(C)=C/C=C/C(C)=C/C(=O)O [Peretinoin] (10 µM),0,0,0,0,0,0,0,0,0,0
O=C1Nc2ccc(CN3C(=O)CSC3=O)cc2/C1=C/c1cc(CN2CCOCC2)c[nH]1 (10 µM),0,0,0,0,0,0,0,0,0,0
N#Cc1cnc2c(Cl)cc(NCc3cn(CCN4CCCCCC4)nn3)cc2c1Nc1ccc(F)c(Cl)c1 [Cot inhibitor-1] (10 µM),0,0,0,0,0,1,0,0,0,0
Cc1cc([C@@H](C)Nc2ccccc2C(=O)O)c2nc(N3CCOCC3)cc(=O)n2c1 (10 µM),0,0,0,0,0,0,0,0,0,0
CC(Sc1nc2c(cnn2-c2cccc(Cl)c2)c(=O)[nH]1)C(N)=O (stereo not given) (10 µM),0,0,0,0,0,0,0,0,0,0
COc1cc(F)ccc1-c1ncnc(Nc2cccc(C[S@](C)(=N)=O)c2)n1 [Atuveciclib] (2.5 µM),0,0,0,2,2,0,0,0,2,0
NCCOc1ccc(Cl)cc1C(=O)Nc1ccc([N+](=O)[O-])cc1Cl [HJC0152 hydrochloride] (2 µM),0,0,0,0,0,0,0,0,0,0
O=C(c1cccc(Cl)c1F)N1CCN(Cc2cccc(Nc3nccs3)n2)CC1 (2.5 µM),0,0,0,0,0,0,0,0,0,0
Cn1c(=O)c2c(nc(S(C)(=O)=O)n2C)n(CC#Cc2cccc(O)c2)c1=O (2.5 µM),0,0,0,0,0,0,0,0,0,0

# 3 entries from above, sorted by length of the SMILES, ascending:
SMILES,number of time points (PRKCA),number of time points (PTK2),number of time points (PTK2B),number of time points (RAF1),number of time points [1],number of time points (RET),number of time points [2],number of time points (RIOK1),number of time points (RIPK1),number of time points (RIPK2)
O=C1CC[C@H](NC(=O)Cc2ccccc2)C(=O)N1 [Antineoplaston A10] (10 µM),0,0,0,0,0,0,0,0,0,0
CN1CCC(CNc2ccc3ncc(-c4cccc(OC(F)(F)F)c4)n3n2)CC1 (2.5 µM),0,0,0,0,0,0,0,0,0,0
Cc1ccc(C(=O)NC2CC2)cc1-n1ncc(C(=O)c2cccc(C#N)c2)c1N [Acumapimod] (10 µM),0,0,0,0,3,0,0,0,0,0
